We go through 1 compound from patent US4921953A, “Cephalosporin derivatives” (Taisho Pharmaceutical Co., Ltd., priority 1988, dated 1990).

The data set can be described thus: in vivo. Set-up: species or system male Japanese native strain white rabbits. The following applies: blood, rabbit, oral, 20 mg/kg suspended in 5% gum arabic, bioassay (Bacillus luteus S1101). How it is done:
Three male Japanese native strain white rabbits weighing 2.50 to 3.15 kg for each group were administered orally with the test compounds, and the change of the concentration of the compound in blood was measured.
Dosage of the test compound: 20 mg/kg (suspended in 5% gum arabic).
Quantitative method: Bioassy method (test bacterium: Bacillus luteus S1101).

As for `CC1=C(C(=O)O)N2C(=O)[C@@H](NC(=O)[C@H](N)c3ccccc3)[C@H]2SC1` [D, Cephalexin, reference compound], the concentration at 4 h (Four Hours after administration) came out at 600 ng/mL. This compound also yielded a concentration at 1 h (One Hour after administration) of 5500 ng/mL. This compound returned a concentration at 2 h (Two Hours after administration) of 2900 ng/mL.
